Assay results published in the supplement of paper PMC10735217.
Structures can show the parent of a compound that is named as a salt. Some of the results follow. This data set is noisy: repeats of one test often differ as much as different tests do.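 In a drug-repurposing library screen, luminescence reads luciferase driven by eight TEAD-binding elements, stably integrated into human kidney-derived cells. Compounds scoring over five robust Z scores above the plate mean are called hits.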

Tested on: HEK293A TEAD-LUC reporter
Test: TEAD-luciferase reporter activity (YAP activation), robust Z score vs plate; higher = stronger YAP/TEAD activation
Details: 24 h

Row | SMILES | TEAD-luciferase reporter activity (compound concentration: 200 nM) | TEAD-luciferase reporter activity (compound concentration: 10 uM) | TEAD-luciferase reporter activity (compound concentration: 2 uM)
1 | [O]=[Zn] | inactive: 0.953 | inactive: 0.162 | –
2 | CC1=C(C(=O)N2CCCCC2)C(c2cc(Cl)cc(Cl)c2)n2nccc2N1 (stereo not drawn) | inactive: -0.307 | inactive: -1.18 | inactive: -0.862
3 | Cc1ccccc1-c1cc(N2CCN(C)CC2)ncc1N(C)C(=O)C(C)(C)c1cc(C(F)(F)F)cc(C(F)(F)F)c1 [Netupitant] | inactive: -1.22 | inactive: -1.23 | inactive: -1.7
4 | O=CCCCC=O | inactive: 1.01 | inactive: -0.0268 | inactive: -0.343
5 | COc1ccccc1N1CCC(CNC[C@H]2COc3ccc(Cl)cc3O2)CC1 | inactive: -2.63 | inactive: -0.95 | inactive: -1.27
6 | Oc1ccc(CCCCNC[C@H](O)c2ccc(O)c(O)c2)cc1 | inactive: -2.5 | inactive: 3.51 | inactive: 0.512
7 | CCCNC(C)C(=O)Nc1ccccc1C (stereo not drawn) [Prilocaine] | – | – | inactive: -0.764
8 | CCCNC(C)C(=O)Nc1ccccc1C (stereo not drawn) | inactive: 0.708 | inactive: 0.0146 | –
9 | CC(C)(C)OC(=O)NCCN1CC2CN(C[C@H](O)COc3ccc(C#N)cc3)CC(C1)O2 [AZD 7009 (inakalant)] | inactive: -1.34 | inactive: 2.54 | inactive: -1.71
10 | CCCCCNC(=S)Nc1ccc(NC(C)=N)cc1 | inactive: 0.0652 | inactive: -1.46 | inactive: -0.0221
11 | Cc1ncc(-c2csc(NC(=N)N)n2)[nH]1 [Zaltidine] | inactive: -0.189 | inactive: -0.508 | inactive: -0.778
12 | CN1CCN(C(=O)c2nc3ccc(Cl)cc3[nH]2)CC1 | inactive: -1.05 | inactive: -0.437 | inactive: -1.19
13 | CC(=O)OCC1=C(C(=O)OC(C)(C)C)N2C(=O)[C@@H](NC(=O)[C@H](NC(=O)OCc3ccccc3)C(C)C)[C@H]2S(=O)(=O)C1 | inactive: -0.898 | inactive: -1.06 | inactive: -1.04
14 | CC[C@H]1CCC[C@H](O[C@H]2CC[C@H](N(C)C)[C@@H](C)O2)[C@@H](C)C(=O)C2=C[C@@H]3[C@@H](C=C(C)[C@@H]4C[C@@H](O[C@@H]5O[C@@H](C)[C@H](OC)[C@@H](OC)[C@H]5OC)C[C@@H]34)[C@@H]2CC(=O)O1 | inactive: 1.97 | inactive: -0.477 | –
15 | Cc1cc2ncc(C(=O)NCCN3CCOCC3)cn2n1 | inactive: -2.11 | inactive: -0.697 | –
16 | CN1CCN(c2ncc(-c3cc(Cl)cc(Cl)c3Cl)c(N)n2)CC1 [Sipatrigine] | inactive: 1.28 | inactive: -1.58 | inactive: -0.84
17 | Cc1cc(NS(=O)(=O)c2ccc(N)cc2)nc(C)n1 | inactive: -0.778 | inactive: 0.406 | inactive: -0.594
18 | [Cl][Mn-5]1234([Cl])[n+]5c6cccc5C[NH+]1[C@@H]1CCCC[C@H]1[NH+]2CC[NH+]3[C@@H]1CCCC[C@H]1[NH+]4C6 (stereo partly drawn) [Imisopasem manganese] | inactive: 1.46 | inactive: 0.283 | inactive: -0.361
19 | CCOc1cc([C@@H](CS(C)(=O)=O)N2C(=O)c3cccc(NC(C)=O)c3C2=O)ccc1OC [Apremilast] | inactive: -3.3 | inactive: 2.59 | inactive: -1.44
20 | O=C1COc2cc(C(=O)N3CCN(C(=O)c4ccc(Cl)cc4)CC3)ccc2N1 | inactive: -0.97 | inactive: -0.704 | inactive: -1.47

In a second layout: entries from further up.
Row	SMILES	TEAD-luciferase reporter activity (compound concentration: 200 nM)	TEAD-luciferase reporter activity (compound concentration: 10 uM)	TEAD-luciferase reporter activity (compound concentration: 2 uM)
13	CC(=O)OCC1=C(C(=O)OC(C)(C)C)N2C(=O)[C@@H](NC(=O)[C@H](NC(=O)OCc3ccccc3)C(C)C)[C@H]2S(=O)(=O)C1	inactive: -0.898	inactive: -1.06	inactive: -1.04
14	CC[C@H]1CCC[C@H](O[C@H]2CC[C@H](N(C)C)[C@@H](C)O2)[C@@H](C)C(=O)C2=C[C@@H]3[C@@H](C=C(C)[C@@H]4C[C@@H](O[C@@H]5O[C@@H](C)[C@H](OC)[C@@H](OC)[C@H]5OC)C[C@@H]34)[C@@H]2CC(=O)O1	inactive: 1.97	inactive: -0.477	–
15	Cc1cc2ncc(C(=O)NCCN3CCOCC3)cn2n1	inactive: -2.11	inactive: -0.697	–

Following part:

Row | SMILES | TEAD-luciferase reporter activity (compound concentration: 200 nM) | TEAD-luciferase reporter activity (compound concentration: 10 uM) | TEAD-luciferase reporter activity (compound concentration: 2 uM)
21 | CC(C)(C)C(=O)CCC1C(=O)N(c2ccccc2)N(c2ccccc2)C1=O | inactive: 2.21 | inactive: 1.99 | inactive: 0.699
22 | Cc1c(N2C[C@@H](N)C3(CC3)C2)c(F)c(N)c2c(=O)c(C(=O)O)cn(C3CC3)c12 | inactive: 0.343 | inactive: -0.528 | inactive: -0.548
23 | S=C([S-])OC1CC2CC1C1CCCC21 [D-609 potassium] | inactive: -1.05 | inactive: -0.498 | –
24 | S=C([S-])OC1CC2CC1C1CCCC21 (stereo not drawn) | – | – | inactive: -0.262
25 | CC(=O)O[C@]1(C(C)=O)CCC2C3CCC4=CC(=O)CCC4=C3[C@@H](c3ccc(N(C)C)cc3)C[C@@]21C (stereo partly drawn) [ulipristal acetate] | inactive: -1.22 | inactive: 3.99 | inactive: -0.428
26 | O=C1[C@H](CC[C@H](O)c2ccc(F)cc2)[C@@H](c2ccc(O)cc2)N1c1ccc(F)cc1 | inactive: -2.62 | inactive: 0.276 | –
27 | O=C1[C@H](CC[C@H](O)c2ccc(F)cc2)[C@@H](c2ccc(O)cc2)N1c1ccc(F)cc1 [ezetimibe] | – | – | inactive: -0.0945
28 | CN1CCCC12Cc1ccccc1CN(C(=O)C1CCCC1)C2 (stereo not drawn) | inactive: -0.513 | inactive: -1.14 | –
29 | COc1ccc(NS(=O)(=O)c2sc3ccc(Cl)cc3c2C)cc1N1CCNCC1 | inactive: -0.536 | inactive: -0.497 | inactive: -1.02
30 | CCn1c(C(=O)c2cc(C)cc(C#N)c2)c(C(C)C)c(=O)[nH]c1=O | inactive: -0.399 | inactive: 0.724 | inactive: -0.911
31 | CCC(=O)O[C@]1(C(=O)OC)[C@H](C)C[C@H]2[C@@H]3C[C@H](F)C4=CC(=O)C=C[C@]4(C)[C@@]3(Cl)[C@@H](O)C[C@@]21C | inactive: 1.52 | inactive: -1.39 | inactive: 0.0261
32 | O=C1CCC2(CCC(=O)c3cc(F)ccc32)C(=O)N1 (stereo not drawn) | inactive: 0.945 | inactive: 0.241 | inactive: -0.499
33 | CCCOc1nc(N)c2ncn(C3CCCC3)c2n1 | inactive: -0.235 | inactive: -0.0763 | inactive: -1.17
34 | Cn1nnc2c(C(N)=O)ncn2c1=O [Temozolomide] | – | – | inactive: -0.909
35 | Cn1nnc2c(C(N)=O)ncn2c1=O | inactive: -1.42 | inactive: -0.917 | –
36 | O=C(COc1ccccc1)NC1C(=O)N2C(C(=O)O)=C(Cl)CSC12 (stereo not drawn) | inactive: -0.0627 | inactive: 0.693 | inactive: -2.27
37 | O=C(CCCC(=O)N1CCN(c2nsc3ccccc23)CC1)N1CCCCCC1 | inactive: 1.78 | inactive: 0.847 | inactive: -0.887
38 | CSc1ccc(Oc2ccc(S(=O)(=O)N(C)C)cc2CN(C)C)cc1 | inactive: 3.97 | inactive: -0.233 | inactive: 0.166
39 | NC(=O)N[C@@H](CCC(=O)O)C(=O)O [carglumic acid] | – | – | inactive: 1.42
40 | NC(=O)N[C@@H](CCC(=O)O)C(=O)O | inactive: -0.498 | inactive: 1.57 | –

Row | SMILES | TEAD-luciferase reporter activity (compound concentration: 200 nM) | TEAD-luciferase reporter activity (compound concentration: 10 uM) | TEAD-luciferase reporter activity (compound concentration: 2 uM)
41 | COC[C@@H]1C[C@@](C#N)(Cn2cccn2)N(C(=O)c2ccc(C(C)(C)C)c(OC)c2)[C@@H]1c1nccs1 | inactive: -1.3 | inactive: -1.34 | inactive: 2.98
42 | Cc1cc(C)cc(-c2ccc(CN3CCCC3C(=O)NC3CCCC3)cc2)c1 (stereo not drawn) | inactive: -3.15 | inactive: 0.297 | –
43 | COC(=O)[C@@H]1CC2=CC(=O)CC[C@]2(C)[C@@]23OC2C[C@@]2(C)[C@@H](CC[C@@]24CCC(=O)O4)C13 (stereo partly drawn) [eplere] | inactive: -1.43 | inactive: 0.131 | inactive: 0.865
44 | CC(C)NCCCC[C@H](NC(=O)[C@H]1CCC(=O)N[C@@H](Cc2ccccc2)C(=O)N[C@H](Cc2ccc(O)cc2)C(=O)N[C@@H](CCCCNC(C)C)C(=O)N[C@H](CCCNC(=N)N)C(=O)N[C@@H](Cc2ccc3ccccc3c2)C(=O)NCC(=O)N1)C(N)=O | inactive: -0.934 | inactive: -0.0404 | inactive: -0.913
45 | COc1ccc(C2(CCCN(C)C)OCc3cc(C#N)ccc32)cc1 (stereo not drawn) | inactive: -1.35 | inactive: -0.444 | inactive: 1.2
46 | O=[N+]([O-])c1ccc(S[C@@H]2SC[C@@H](O)[C@@H](O)[C@@H]2O)cc1 | inactive: -1.28 | inactive: -0.995 | inactive: -0.221
47 | CCOc1c(N)cccc1C(=O)OCCN(CC)CC | inactive: 0.0245 | inactive: 1.41 | inactive: 0.302
48 | O=C(O)c1ccc(CNCC(O)c2ccccc2)cc1 (stereo not drawn) | inactive: -1.35 | inactive: 4.77 | inactive: -2.11
49 | CCN(CC)CCOc1ccc2c(c1)C(=O)c1cc(OCCN(CC)CC)ccc1-2 [tilorone] | inactive: -0.784 | inactive: -1.58 | inactive: 0.317
50 | O=C(O)CCC(=O)c1ccc(-c2ccccc2)cc1 [Fenbufen] | – | – | inactive: 0.203
51 | O=C(O)CCC(=O)c1ccc(-c2ccccc2)cc1 | inactive: -0.777 | inactive: 0.319 | –
52 | COc1ccc(OC)c(C2CCN(Cc3ccc4c(c3)OCCO4)C2)c1 (stereo not drawn) | inactive: -0.335 | inactive: -1.3 | inactive: -0.574
53 | CCCNCCOc1ccc(NC(=O)c2c[nH]c3c2C(=O)CCC3)cc1F | inactive: -1.97 | inactive: 2.16 | inactive: -0.808
54 | CCCCC[C@H](O)/C=C/[C@H]1CCC(=O)[C@@H]1CCCCCCC(=O)NC(C(=O)O)C(C)C (stereo partly drawn) | inactive: -1.3 | inactive: -0.434 | inactive: 0.669
55 | COc1ccc(CN(CCC(=O)O)S(=O)(=O)c2ccc(C)cc2)cc1 | inactive: -0.138 | inactive: 0.362 | inactive: 0.626
56 | Cn1c(NCCN(CCO)CCCc2ccc([N+](=O)[O-])cc2)cc(=O)n(C)c1=O [nifekalant hydrochloride] | – | – | inactive: -0.9
57 | Cn1c(NCCN(CCO)CCCc2ccc([N+](=O)[O-])cc2)cc(=O)n(C)c1=O [Nifekalant hydrochloriden/a] | inactive: -1.56 | inactive: -0.0278 | –
58 | COc1ccc(-c2nc(=O)n(CC=C(C)C)nc2-c2ccc(OC)cc2)cc1 | inactive: 0.357 | inactive: 0.649 | inactive: -0.454
